Counter-ions that a name gives are not always drawn. Some of the results follow. Hit calls seldom repeat between salt and free forms of one compound.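 Kinases were expressed as nanoluciferase fusions in K562 cells and luminescence was read every 4 h between 2 and 18 h as percent of control, DMSO set to 100% and a positive control to 0%. A time point counts as decreased when the signal drops significantly (2 sigma). The hit call is the authors' own, does not follow from the count of time points alone, and its rule is not shown.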
Key:
Test in all cases: number of time points (of 5) at which kinase-Nluc abundance scored as decreased, DMSO-normalised (count); higher = more persistent destabilization
Settings in all cases: K562; 2-18 h
[1] = molecular target: FLT3 (UniProt P36888)
[2] = molecular target: FYN (UniProt P06241)
[3] = molecular target: GSK3A (UniProt P49840)
[4] = molecular target: HER2 (UniProt P04626)
[5] = molecular target: INSRR (UniProt P14616)
[6] = molecular target: IRAK3 (UniProt Q9Y616)
[7] = molecular target: JAK1 (UniProt P23458)
[8] = molecular target: LCK (UniProt P06239)
[9] = molecular target: LIMK1 (UniProt P53667)
[10] = molecular target: LIMK2 (UniProt P53671)

By UniProt entry, the sequences of proteins in these tests, tags left out. Where a name states a change or a piece, a line headed by the entry shows the natural chain unless it says otherwise.
UniProt P36888, whole entry: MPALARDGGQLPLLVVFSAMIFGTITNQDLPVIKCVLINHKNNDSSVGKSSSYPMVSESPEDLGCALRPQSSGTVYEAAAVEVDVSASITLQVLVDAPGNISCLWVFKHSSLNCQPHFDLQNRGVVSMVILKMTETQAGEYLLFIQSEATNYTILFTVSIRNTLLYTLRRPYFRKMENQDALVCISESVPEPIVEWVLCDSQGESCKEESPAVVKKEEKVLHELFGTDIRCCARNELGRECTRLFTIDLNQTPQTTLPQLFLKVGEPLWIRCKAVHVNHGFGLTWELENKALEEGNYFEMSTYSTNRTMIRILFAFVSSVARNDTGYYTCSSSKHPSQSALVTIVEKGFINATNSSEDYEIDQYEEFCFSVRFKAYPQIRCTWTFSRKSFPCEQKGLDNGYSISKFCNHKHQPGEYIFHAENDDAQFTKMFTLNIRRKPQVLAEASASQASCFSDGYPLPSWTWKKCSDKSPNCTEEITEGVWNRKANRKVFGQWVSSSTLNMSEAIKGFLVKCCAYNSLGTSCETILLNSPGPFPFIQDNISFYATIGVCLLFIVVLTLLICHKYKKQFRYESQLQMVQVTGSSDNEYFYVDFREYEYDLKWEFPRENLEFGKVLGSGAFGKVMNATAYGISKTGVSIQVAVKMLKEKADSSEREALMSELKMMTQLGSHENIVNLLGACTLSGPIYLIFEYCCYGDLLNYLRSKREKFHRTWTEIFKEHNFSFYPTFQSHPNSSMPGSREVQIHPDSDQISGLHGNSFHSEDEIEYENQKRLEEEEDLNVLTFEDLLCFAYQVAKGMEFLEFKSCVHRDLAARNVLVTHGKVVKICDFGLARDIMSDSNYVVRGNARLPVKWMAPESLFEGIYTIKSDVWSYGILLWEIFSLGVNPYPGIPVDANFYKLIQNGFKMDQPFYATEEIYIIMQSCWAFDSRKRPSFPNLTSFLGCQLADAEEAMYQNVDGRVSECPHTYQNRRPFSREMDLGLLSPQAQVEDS
UniProt P49840: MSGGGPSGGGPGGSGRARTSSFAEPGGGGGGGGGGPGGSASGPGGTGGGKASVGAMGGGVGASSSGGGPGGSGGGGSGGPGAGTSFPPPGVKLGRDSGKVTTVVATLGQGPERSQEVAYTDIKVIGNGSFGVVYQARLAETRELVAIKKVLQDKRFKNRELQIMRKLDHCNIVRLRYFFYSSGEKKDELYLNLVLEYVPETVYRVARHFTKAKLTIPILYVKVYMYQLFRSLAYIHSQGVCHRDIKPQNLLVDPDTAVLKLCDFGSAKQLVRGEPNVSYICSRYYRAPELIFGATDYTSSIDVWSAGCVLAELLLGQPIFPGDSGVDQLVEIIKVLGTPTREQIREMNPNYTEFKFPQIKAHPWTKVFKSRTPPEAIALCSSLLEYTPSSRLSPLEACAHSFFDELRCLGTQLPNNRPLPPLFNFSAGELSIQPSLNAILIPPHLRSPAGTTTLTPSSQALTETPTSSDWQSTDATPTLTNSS
UniProt P14616: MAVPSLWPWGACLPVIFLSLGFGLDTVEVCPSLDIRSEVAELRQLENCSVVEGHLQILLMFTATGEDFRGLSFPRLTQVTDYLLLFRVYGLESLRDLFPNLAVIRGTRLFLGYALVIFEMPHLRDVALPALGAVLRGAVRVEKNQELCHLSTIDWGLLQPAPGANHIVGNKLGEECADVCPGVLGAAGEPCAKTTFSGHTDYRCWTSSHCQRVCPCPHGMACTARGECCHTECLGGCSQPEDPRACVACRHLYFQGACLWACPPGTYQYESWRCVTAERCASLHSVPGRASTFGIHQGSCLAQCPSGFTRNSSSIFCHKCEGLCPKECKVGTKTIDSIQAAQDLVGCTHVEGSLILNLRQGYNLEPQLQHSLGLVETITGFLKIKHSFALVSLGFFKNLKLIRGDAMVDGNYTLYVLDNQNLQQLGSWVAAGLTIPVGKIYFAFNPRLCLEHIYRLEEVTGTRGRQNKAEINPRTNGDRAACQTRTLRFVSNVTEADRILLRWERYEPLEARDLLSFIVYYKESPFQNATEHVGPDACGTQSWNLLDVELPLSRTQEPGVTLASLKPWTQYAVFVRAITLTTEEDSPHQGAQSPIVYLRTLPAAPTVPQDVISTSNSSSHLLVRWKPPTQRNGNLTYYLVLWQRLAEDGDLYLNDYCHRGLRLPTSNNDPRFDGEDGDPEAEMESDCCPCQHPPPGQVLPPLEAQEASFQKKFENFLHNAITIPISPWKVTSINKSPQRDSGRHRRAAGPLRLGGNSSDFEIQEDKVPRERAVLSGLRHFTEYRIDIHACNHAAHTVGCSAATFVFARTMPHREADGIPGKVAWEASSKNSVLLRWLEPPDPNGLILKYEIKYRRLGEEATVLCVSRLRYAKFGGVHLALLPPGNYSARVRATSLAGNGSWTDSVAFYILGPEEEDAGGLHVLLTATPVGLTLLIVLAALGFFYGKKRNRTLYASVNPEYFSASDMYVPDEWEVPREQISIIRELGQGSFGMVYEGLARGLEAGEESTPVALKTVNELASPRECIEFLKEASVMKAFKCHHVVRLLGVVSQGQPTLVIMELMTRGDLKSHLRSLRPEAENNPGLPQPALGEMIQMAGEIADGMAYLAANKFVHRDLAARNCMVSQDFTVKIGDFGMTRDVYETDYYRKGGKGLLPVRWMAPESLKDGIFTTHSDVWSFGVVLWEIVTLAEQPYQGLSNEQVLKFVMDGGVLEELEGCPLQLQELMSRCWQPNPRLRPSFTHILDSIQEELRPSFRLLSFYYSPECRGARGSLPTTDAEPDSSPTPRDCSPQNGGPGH
UniProt Q9Y616: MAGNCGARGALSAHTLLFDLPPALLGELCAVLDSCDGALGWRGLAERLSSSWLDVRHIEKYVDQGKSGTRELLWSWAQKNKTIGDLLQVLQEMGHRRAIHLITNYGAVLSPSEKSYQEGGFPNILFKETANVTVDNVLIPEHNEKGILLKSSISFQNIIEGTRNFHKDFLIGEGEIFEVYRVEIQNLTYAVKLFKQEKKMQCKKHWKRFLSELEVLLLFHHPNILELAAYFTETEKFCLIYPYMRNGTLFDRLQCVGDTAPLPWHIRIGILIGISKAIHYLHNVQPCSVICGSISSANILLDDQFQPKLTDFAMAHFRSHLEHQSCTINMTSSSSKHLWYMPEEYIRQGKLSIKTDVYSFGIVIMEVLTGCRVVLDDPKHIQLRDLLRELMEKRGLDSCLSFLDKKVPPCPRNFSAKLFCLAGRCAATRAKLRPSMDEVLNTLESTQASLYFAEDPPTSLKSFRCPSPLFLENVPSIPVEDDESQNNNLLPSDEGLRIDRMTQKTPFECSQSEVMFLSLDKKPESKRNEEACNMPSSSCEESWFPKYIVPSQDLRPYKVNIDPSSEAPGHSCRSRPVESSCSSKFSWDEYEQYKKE
UniProt P23458: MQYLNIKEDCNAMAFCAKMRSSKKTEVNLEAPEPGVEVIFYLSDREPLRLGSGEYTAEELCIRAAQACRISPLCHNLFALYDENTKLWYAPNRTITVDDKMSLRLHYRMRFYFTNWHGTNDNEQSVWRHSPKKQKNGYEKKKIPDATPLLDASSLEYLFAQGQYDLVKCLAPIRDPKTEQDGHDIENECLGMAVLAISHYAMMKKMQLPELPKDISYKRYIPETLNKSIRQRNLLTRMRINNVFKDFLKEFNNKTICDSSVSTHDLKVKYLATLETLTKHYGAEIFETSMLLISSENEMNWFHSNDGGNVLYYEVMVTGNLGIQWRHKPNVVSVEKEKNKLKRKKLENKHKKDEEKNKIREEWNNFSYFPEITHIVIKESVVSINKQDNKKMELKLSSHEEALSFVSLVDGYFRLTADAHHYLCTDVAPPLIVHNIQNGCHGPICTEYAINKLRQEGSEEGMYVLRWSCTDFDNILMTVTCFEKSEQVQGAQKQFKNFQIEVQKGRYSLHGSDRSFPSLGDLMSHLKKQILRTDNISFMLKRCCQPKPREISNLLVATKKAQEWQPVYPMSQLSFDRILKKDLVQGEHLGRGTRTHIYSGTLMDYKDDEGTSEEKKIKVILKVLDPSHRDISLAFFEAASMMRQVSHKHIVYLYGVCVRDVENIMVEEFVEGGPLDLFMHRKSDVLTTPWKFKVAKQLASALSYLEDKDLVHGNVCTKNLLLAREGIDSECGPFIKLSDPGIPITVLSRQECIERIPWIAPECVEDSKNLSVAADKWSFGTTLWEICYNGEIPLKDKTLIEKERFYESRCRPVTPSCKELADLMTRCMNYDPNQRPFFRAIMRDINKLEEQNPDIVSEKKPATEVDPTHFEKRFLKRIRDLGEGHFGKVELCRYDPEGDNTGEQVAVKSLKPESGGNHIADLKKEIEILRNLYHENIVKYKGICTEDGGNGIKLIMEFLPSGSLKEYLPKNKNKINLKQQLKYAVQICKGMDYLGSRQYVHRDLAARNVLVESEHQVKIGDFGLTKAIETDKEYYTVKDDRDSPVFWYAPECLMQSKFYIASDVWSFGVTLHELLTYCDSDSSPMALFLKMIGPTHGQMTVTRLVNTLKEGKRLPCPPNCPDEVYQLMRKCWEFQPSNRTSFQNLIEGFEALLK
UniProt P06239: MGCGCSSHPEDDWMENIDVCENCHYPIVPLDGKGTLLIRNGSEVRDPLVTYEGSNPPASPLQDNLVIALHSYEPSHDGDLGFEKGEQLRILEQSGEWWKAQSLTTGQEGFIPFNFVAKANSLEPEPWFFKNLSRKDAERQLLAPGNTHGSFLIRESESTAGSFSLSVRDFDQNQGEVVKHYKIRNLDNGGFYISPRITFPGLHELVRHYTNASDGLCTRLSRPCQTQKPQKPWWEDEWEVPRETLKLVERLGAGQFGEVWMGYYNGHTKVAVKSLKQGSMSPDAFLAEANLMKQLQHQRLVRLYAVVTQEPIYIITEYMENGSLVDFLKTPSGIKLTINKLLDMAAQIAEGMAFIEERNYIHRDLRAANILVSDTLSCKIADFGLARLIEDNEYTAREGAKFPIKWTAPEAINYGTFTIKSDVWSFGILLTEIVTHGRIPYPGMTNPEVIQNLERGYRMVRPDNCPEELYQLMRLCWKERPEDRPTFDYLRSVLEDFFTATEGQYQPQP
UniProt P53667: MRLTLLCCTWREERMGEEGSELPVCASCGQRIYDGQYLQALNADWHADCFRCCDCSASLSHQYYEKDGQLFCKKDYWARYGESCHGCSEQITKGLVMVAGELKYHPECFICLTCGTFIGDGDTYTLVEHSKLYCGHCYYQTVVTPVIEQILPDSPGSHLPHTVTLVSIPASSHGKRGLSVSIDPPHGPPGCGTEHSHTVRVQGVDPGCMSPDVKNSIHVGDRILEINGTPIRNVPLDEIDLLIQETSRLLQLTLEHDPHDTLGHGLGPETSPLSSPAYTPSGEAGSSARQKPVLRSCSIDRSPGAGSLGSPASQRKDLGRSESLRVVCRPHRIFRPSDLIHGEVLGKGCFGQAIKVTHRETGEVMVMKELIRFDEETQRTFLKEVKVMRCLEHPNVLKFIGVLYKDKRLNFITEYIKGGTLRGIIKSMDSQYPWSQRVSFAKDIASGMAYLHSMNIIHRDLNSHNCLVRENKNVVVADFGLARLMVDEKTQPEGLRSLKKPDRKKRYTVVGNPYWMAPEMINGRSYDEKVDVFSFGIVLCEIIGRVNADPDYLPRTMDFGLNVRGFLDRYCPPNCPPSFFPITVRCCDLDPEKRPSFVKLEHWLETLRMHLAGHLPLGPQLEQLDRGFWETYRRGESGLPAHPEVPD
UniProt P53671: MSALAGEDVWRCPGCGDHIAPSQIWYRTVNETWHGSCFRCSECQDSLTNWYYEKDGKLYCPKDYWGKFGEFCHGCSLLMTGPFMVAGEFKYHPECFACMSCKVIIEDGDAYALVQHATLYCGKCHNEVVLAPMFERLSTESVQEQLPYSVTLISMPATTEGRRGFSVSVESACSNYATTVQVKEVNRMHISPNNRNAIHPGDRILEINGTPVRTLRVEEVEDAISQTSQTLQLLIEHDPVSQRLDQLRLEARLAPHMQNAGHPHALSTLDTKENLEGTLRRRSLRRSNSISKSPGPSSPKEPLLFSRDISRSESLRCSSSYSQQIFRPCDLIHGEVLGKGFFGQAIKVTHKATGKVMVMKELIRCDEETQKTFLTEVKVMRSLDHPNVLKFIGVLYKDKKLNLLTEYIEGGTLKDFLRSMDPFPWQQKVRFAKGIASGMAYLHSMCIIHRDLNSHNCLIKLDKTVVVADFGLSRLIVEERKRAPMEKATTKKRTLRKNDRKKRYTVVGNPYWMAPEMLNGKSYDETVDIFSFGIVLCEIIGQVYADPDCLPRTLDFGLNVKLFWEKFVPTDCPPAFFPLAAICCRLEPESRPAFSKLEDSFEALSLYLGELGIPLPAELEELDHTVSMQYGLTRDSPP

| Structure (SMILES) | number of time points [1] | number of time points [2] | number of time points [3] | number of time points [4] | number of time points [5] | number of time points [6] | number of time points [7] | number of time points [8] | number of time points [9] | number of time points [10] |
| --- | --- | --- | --- | --- | --- | --- | --- | --- | --- | --- |
| Nc1nc2ccc(Cl)cc2c2nc(-c3ccco3)nn12 (10 µM) | 0 | 0 | 0 | 0 | 0 | 0 | 0 | 0 | 0 | 0 |
| O=C(NOCC(O)CO)c1cc(Br)c(F)c(F)c1Nc1ccc(I)cc1F (stereo not given) (2.5 µM) | 0 | 0 | 0 | 0 | 0 | 0 | 0 | 0 | 0 | 0 |
| COc1ccc(OC)c(C2C(C#N)=C(N)Oc3n[nH]c(-c4ccc5ccccc5c4)c32)c1 (stereo not given) (10 µM) | 0 | 0 | 0 | 0 | 0 | 0 | 0 | 0 | 0 | 0 |
| NCCNS(=O)(=O)c1cccc2c(Cl)cccc12 [A-3 (hydrochloride)] (10 µM) | 0 | 0 | 0 | 0 | 0 | 0 | 0 | 0 | 0 | 0 |
| COc1cc2c(cc1OC)CN(S(=O)(=O)c1ccc(OC)c(N3CCN(C(=O)c4ccc(F)cc4C(F)(F)F)CC3)c1)CC2 (10 µM) | 0 | 0 | 0 | 0 | 0 | 0 | 0 | 0 | 0 | 0 |
| Cn1cc(-c2ccc3nnc(Sc4ccc5ncccc5c4)n3n2)cn1 (10 µM) | 0 | 0 | 0 | 0 | 0 | 0 | 0 | 0 | 0 | 0 |
| C=C1C(=O)O[C@H]2C[C@H](C)C(/C=C/C(C)=O)=CC[C@H]12 [Xanthatin] (2.5 µM) | 0 | 0 | 0 | 0 | 0 | 0 | 0 | 0 | 0 | 0 |
| NC(=O)c1ccc2[nH]ccc2c1 (10 µM) | 0 | 0 | 0 | 0 | 0 | 0 | 0 | 0 | 0 | 0 |
| CCCS(=O)(=O)Nc1ccc(F)c(C(=O)c2c[nH]c3ncc(-c4ccc(Cl)cc4)cc23)c1F [Vemurafenib] (10 µM) | 0 | 1 | 0 | 1 | 0 | 0 | 0 | 0 | 2 | 0 |
| O=C(NCCN1CCCC1)c1cc(-c2ccc(CN3CCOCC3)cc2)nc2ccc(F)cc12 (10 µM) | 0 | 0 | 0 | 0 | 0 | 0 | 0 | 0 | 0 | 0 |
| O=C(Nc1cn[nH]c1-c1ccccn1)c1nn(C2CCNCC2)cc1Cl (10 µM) | 0 | 0 | 0 | 0 | 0 | 0 | 0 | 0 | 0 | 0 |
| C=CC(=O)Nc1cccc(Nc2nc(Nc3ccc(NC4CN(CCF)C4)cc3OC)ncc2C(F)(F)F)c1 (2.5 µM) | 0 | 0 | 0 | 1 | 0 | 0 | 0 | 0 | 0 | 0 |
| O=C1Nc2ccc(C(=O)c3ccco3)cc2C1=Cc1cc(Cl)c(O)c(Cl)c1 (2.5 µM) | 0 | 0 | 0 | 0 | 0 | 0 | 0 | 0 | 0 | 0 |

For reference, some entries already given:

| Structure (SMILES) | number of time points [1] | number of time points [2] | number of time points [3] | number of time points [4] | number of time points [5] | number of time points [6] | number of time points [7] | number of time points [8] | number of time points [9] | number of time points [10] |
| --- | --- | --- | --- | --- | --- | --- | --- | --- | --- | --- |
| Nc1nc2ccc(Cl)cc2c2nc(-c3ccco3)nn12 (10 µM) | 0 | 0 | 0 | 0 | 0 | 0 | 0 | 0 | 0 | 0 |
| O=C(NOCC(O)CO)c1cc(Br)c(F)c(F)c1Nc1ccc(I)cc1F (stereo not given) (2.5 µM) | 0 | 0 | 0 | 0 | 0 | 0 | 0 | 0 | 0 | 0 |
